Results published in PubChem BioAssay AID1688 (National Center for Advancing Translational Sciences (NCATS), 2009).
The campaign covered roughly 220,000 compounds. About 2,400 (1.1%) were called active. The inconclusive results got no clear call from the source; some entries with a clear call stand among them for comparison. Calls come from the whole dose curve; as a rule, active = well fitted inhibition curve with a large enough effect; inconclusive = small, poorly fitted or top-dose-only effect, or effect the other way; inactive = no such curve, though single readings can be large or run the other way. Potencies of inconclusive entries are doubtful fits and often do not repeat.

Test: qHTS Multiplex Assay to Identify Dual Action Probes in a Cell Model of Huntington: Aggregate Formation (GFP); note: nearly all actives have a fitted effect of over 60% in size
Conditions: PC12 HttQ103-GFP aggregates, Acumen cytometry, 40 h; activity change, negative = inhibition: at 46.1 µM (top of the series) unless noted
Method in brief: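 Aggregates are detected as GFP objects 1–25 µm with signal 6 STDEV over background in lysates of induced PC12 cells. These carry Huntingtin exon 1 with 103 glutamines fused to GFP under an ecdysone promoter; compounds titrated.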
% is set by controls: 0 for no effect and ±100 for the full control effect; potency is the fitted concentration of half-maximal effect.

| SMILES | Potency | activity change, negative = inhibition |
| --- | --- | --- |
| COc1cc2c(cc1NC(=S)NC(=O)/C=C/c1ccco1)oc1ccccc12 | inactive | – |
| CC(=O)Oc1ccc(N2C(=O)C3C4C=CC(O4)C3C2=O)cc1 (centres undefined) | inconclusive: 22.4 µM [inhibitor, single point] | – |
| Cc1nc2ccccc2cc1OCc1ccc(Cl)cc1 | active: 7.94 µM | – |
| CC(=O)Nc1ccc(NC(=O)COc2c(C)cc(Br)cc2C)cc1 | inactive | – |
| CC1=C(C(=O)OCc2ccccc2)C(c2ccc(C(C)(C)C)cc2)NC(=O)N1CCCCCC(=O)O (centres undefined) | inconclusive: 17.8 µM [inhibitor, single point] | – |
| O=C(O)c1cc(/C=C/c2ccc(N3CCOCC3)c([N+](=O)[O-])c2)nc2ccccc12 | – | inactive: -3.59% [at 9.22 µM] |
| CC(=O)c1ccc(N2CCN(C(=O)c3cc4c(-c5ccccc5F)nn(C)c4s3)CC2)cc1 | inconclusive: 7.94 µM [inhibitor, partial curve] | – |
| O=C(c1cc2nc(-c3ccccc3)cc(-c3ccccc3)n2n1)N1CCN(C(=O)c2ccco2)CC1 | inconclusive: 25.1 µM [inhibitor, single point] | – |
| c1ccc(CNc2nc3ccccc3[nH]2)cc1 | inactive | – |
| CC(=O)N(C)c1ccc(OCC(O)Cn2c(C)nc3ccccc32)cc1 (centres undefined) | inconclusive: 22.4 µM [inhibitor, partial curve] | – |
| Cc1nn(Cc2cccc(F)c2)c(C)c1NC(=O)c1ccc(COc2ccccc2Cl)cc1 | inconclusive: 14.1 µM [inhibitor, single point] | – |
| CCN1C(=O)C2(C(C#N)=C(N)Oc3n[nH]c(-c4ccc(Cl)cc4)c32)c2ccccc21 (centres undefined) | inconclusive: 1 µM [activator, full curve, poor fit] | – |
| COc1ccccc1NC(=O)CN1CCN(CC(=O)Nc2ccc(Cl)c(C(F)(F)F)c2)CC1 | inconclusive: 15.8 µM [inhibitor, single point] | – |
| CC1CN(c2nc3ccccn3c(=O)c2/C=C(\C#N)C(=O)N2CCOCC2)CC(C)O1 (centres undefined) | – | inactive: 4.72% [at 9.22 µM] |
| CC(=O)C(N=Nc1ccccc1)(Sc1nnc(-c2ccccc2)n1-c1ccccc1)C(C)=O | inconclusive: 35.5 µM [inhibitor, single point] | – |
| COc1cc(NC(=O)CN2CCN(S(=O)(=O)c3ccc(C(C)C)cc3)CC2)cc(OC)c1 | inactive | – |
| O=c1c(/C=C(\O)c2ccc(F)cc2)nc2ccccc2n1-c1ccccc1 | inactive | – |
| O=C(Nc1ccc2c(c1)OCCO2)N1CCOCC1 | inactive | – |
| CC1CC2(C)Oc3ccccc3C3OCC1(CO)C(C)C32 (centres undefined) | inconclusive: 3.55 µM [inhibitor, single point] | – |

Three structures from above, ordered by molar mass, falling.

| SMILES | Potency | activity change, negative = inhibition |
| --- | --- | --- |
| O=C(c1cc2nc(-c3ccccc3)cc(-c3ccccc3)n2n1)N1CCN(C(=O)c2ccco2)CC1 | inconclusive: 25.1 µM [inhibitor, single point] | – |
| CC(=O)Oc1ccc(N2C(=O)C3C4C=CC(O4)C3C2=O)cc1 (centres undefined) | inconclusive: 22.4 µM [inhibitor, single point] | – |
| c1ccc(CNc2nc3ccccc3[nH]2)cc1 | inactive | – |
